We go through one molecule from PMC3252277.

The target in the experiment is recombinant full length LTBP-4 (human). Briefly: SPR; interaction studies summarized in Table S2 (ADAMTSL, LTBP and fibrillin-1 peptides); which partner was coupled is not given; 25°C, HBS-EP buffer; both purified. In general terms: SPR reads the build-up and loss of mass on a sensor chip optically.

These are yes or no findings as the source states them, for the method shown.

B1: recombinant full-length ADAMTSL-2 (protein, UniProt Q7TSK7 30-957)
chain: SDNSPTSNSLEGGADTTAYWWGEWTKWTACSRSCGGGVTSQERHCLQQRRKSVPGTGNRTCVGTSKRYQLCRVQECPPDGRSFREEQCVSFNSRVYDGRAYQWKPLYPDDYVHISSKPCDLHCSTVDGQRQLTVPARDGTSCKLTDLRGVCVSGKCEPIGCDGVLFSTHTLDKCGVCQGDGSSCTHVTGNYRKGNNHLGYSLVTHIPAGARDIQIVERKKSADVLALADEAGFYFFNGNYKVDSPKNFNIAGTVVKYRRPMDVYETGIEYIVAQGPTNQGLNVMVWNQNGKSPSITFEYTLLQSPHMHHLPPVYYSFSEAASQSTESTERQELDSARLLGFMQHNGSLYRQTSSERLGLNSQLFQPPAPEVELGPSRGQESNEVCKQASGGVCEGPPRGKGFQDHNATGRAFSADKDDREISAHFTSHELLSANTISDQLLGTGSESEEFSLNETMNSIFAQGAPRSSPAESLYVDYEENEGPAAYLINGSYLELSSDRINTSSEAPFPNTSASPPNLAGNRTHKARTRPKARKQGVSPADMYRWKLSSHEPCSATCTTGVMSTYAMCVRYDGVEVDDSYCDALTRPEPVHEFCAGRECQPRWETSSWSECSRTCGEGHQFRIVRCWKMLSPGFDSSVYSDLCEATEAVRPEERKTCRNPACGPQWEMSEWSECTAKCGERSVVTRDIRCSEDEKLCDPSTKPVGEKNCTGPPCDRQWTVSDWGPCSGSCGQGRTIRHVYCKTSDGRVVPESQCQTETKPLAIHPCGDKNCPAHWLAQDWERCNTTCGRGVKKRLVLCMELANGKPQIRSGPECGLARKPPEESTCFERPCFKWYTSPWSECTKTCGVGVRMRDVKCYQGTDIVRGCDPLVKPVGRQACDLQPCPTEPPDDSCQDQPGTNCALAIKVNLCGHWYYSKACCRSCRPPHS
With B1, the binding entry is on record as “no binding”.
